Test results taken from the supplement of paper PMC10849652.
Some of the results follow.

Amino acid sequences for entries named in this document (tags omitted). A change or cut given only in a name is not applied to a line headed by its entry.
UniProt Q06136: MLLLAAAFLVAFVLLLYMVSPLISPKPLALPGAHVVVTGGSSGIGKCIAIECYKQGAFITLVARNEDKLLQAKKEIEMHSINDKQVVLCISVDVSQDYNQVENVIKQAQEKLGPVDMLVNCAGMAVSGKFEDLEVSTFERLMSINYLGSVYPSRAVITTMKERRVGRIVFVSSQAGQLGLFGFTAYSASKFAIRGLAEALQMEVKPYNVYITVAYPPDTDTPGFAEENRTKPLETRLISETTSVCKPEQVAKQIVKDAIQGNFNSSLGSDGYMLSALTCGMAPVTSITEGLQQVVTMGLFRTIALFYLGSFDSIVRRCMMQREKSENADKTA
UniProt Q99661: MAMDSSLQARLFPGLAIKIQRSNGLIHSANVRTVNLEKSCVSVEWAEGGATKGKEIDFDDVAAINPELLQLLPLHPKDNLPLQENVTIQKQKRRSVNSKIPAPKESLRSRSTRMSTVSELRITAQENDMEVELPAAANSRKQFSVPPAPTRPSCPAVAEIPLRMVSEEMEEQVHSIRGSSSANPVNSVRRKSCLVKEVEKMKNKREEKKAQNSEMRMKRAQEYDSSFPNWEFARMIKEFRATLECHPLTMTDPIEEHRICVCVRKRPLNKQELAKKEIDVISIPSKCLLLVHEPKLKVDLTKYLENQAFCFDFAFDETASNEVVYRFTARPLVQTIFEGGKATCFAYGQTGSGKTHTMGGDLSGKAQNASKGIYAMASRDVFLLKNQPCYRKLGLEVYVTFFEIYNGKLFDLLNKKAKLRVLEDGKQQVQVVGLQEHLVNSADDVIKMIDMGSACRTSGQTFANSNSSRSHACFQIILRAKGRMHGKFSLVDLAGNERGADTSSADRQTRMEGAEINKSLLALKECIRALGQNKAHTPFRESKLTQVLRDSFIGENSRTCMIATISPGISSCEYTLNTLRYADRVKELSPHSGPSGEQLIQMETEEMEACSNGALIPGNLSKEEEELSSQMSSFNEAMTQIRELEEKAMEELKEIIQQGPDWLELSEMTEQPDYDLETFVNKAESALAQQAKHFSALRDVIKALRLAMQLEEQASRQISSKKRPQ
UniProt Q8N371: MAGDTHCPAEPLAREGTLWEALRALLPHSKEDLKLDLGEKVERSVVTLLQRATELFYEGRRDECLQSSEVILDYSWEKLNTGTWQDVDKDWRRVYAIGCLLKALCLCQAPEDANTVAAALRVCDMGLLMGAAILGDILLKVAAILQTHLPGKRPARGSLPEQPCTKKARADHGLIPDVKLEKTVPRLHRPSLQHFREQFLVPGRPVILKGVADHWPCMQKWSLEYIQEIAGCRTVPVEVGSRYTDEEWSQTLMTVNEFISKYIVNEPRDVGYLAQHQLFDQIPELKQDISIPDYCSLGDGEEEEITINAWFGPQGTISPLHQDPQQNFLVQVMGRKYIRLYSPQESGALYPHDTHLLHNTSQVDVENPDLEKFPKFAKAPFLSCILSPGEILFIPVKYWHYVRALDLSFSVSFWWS
UniProt Q14145, whole entry, looked up: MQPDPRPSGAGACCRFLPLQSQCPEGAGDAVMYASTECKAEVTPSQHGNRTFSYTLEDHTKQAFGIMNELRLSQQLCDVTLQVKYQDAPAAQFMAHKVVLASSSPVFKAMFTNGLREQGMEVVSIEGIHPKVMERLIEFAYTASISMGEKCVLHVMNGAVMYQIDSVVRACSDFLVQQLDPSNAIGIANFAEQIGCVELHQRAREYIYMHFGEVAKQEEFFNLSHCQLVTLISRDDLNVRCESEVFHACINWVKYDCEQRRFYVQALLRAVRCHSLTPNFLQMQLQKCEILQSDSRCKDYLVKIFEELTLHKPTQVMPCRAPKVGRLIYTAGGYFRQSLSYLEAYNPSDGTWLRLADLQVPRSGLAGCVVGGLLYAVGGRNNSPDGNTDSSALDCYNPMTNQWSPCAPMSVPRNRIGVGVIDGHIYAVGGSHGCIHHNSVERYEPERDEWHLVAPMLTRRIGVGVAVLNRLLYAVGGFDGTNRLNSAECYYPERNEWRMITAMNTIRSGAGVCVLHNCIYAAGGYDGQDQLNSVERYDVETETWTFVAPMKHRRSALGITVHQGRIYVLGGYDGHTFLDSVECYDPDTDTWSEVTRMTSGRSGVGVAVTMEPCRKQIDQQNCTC
UniProt Q14974, whole entry, looked up: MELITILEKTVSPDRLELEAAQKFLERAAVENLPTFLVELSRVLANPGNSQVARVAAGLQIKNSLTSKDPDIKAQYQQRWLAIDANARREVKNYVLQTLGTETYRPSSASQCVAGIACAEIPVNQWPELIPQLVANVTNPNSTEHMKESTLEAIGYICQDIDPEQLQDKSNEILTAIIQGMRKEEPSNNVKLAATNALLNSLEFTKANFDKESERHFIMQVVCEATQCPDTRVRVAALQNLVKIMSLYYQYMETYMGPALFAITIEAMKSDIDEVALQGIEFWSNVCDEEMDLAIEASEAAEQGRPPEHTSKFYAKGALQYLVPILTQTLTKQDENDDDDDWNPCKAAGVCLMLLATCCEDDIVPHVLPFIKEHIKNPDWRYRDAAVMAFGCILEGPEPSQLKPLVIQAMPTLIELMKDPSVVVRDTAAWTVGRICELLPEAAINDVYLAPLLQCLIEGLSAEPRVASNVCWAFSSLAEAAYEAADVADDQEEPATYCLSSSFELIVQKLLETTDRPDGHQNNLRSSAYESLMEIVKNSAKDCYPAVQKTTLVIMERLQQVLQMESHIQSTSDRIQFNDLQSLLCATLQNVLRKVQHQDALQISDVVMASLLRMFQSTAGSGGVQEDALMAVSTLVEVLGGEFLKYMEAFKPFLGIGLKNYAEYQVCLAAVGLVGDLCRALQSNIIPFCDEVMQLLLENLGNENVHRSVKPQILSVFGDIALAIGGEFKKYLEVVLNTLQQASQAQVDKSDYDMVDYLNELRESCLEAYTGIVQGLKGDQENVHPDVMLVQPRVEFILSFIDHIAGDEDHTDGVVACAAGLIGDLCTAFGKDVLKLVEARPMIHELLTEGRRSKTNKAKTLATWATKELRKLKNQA
UniProt Q9BQ90: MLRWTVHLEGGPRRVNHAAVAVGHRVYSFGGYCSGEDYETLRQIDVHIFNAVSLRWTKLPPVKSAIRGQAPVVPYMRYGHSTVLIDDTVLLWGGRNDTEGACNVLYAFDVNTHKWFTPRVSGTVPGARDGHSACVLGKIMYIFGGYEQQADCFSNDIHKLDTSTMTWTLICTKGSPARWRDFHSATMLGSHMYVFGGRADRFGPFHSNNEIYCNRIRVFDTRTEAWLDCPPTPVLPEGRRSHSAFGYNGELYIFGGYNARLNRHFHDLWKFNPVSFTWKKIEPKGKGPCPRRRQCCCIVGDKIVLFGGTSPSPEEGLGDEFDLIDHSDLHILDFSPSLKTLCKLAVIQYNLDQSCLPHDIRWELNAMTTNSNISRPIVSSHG
UniProt Q6YP21: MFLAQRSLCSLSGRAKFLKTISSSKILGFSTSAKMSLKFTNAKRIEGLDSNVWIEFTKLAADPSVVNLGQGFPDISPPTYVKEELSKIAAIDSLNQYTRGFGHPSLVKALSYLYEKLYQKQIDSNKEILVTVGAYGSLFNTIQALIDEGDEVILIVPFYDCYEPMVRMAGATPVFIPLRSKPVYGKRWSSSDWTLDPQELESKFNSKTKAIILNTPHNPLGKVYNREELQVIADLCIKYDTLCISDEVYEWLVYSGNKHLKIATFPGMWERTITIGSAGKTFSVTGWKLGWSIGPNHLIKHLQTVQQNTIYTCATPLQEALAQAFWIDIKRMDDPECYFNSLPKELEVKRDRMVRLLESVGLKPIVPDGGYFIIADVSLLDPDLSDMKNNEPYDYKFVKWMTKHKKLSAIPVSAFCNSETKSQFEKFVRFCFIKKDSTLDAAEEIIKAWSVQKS
UniProt Q71RC2, whole entry, looked up: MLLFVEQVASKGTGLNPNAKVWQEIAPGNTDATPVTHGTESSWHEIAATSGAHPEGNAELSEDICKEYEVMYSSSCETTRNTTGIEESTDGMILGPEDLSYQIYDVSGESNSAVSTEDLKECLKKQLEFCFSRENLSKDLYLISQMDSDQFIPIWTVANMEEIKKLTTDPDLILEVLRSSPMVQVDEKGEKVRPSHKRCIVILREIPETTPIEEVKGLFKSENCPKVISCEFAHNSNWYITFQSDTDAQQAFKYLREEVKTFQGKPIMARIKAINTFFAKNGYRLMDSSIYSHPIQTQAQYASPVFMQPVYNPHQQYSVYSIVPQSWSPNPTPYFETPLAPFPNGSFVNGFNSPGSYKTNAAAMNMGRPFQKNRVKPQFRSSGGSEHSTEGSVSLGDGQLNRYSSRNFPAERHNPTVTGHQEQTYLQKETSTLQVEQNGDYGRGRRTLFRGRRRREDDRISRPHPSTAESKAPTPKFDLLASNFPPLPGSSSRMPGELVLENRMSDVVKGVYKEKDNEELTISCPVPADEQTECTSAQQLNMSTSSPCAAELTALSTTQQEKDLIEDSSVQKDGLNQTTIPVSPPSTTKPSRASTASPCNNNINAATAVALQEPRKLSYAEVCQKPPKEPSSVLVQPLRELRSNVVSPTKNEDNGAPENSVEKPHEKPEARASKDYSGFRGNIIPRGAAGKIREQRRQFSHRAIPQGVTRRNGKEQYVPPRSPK
UniProt Q12840: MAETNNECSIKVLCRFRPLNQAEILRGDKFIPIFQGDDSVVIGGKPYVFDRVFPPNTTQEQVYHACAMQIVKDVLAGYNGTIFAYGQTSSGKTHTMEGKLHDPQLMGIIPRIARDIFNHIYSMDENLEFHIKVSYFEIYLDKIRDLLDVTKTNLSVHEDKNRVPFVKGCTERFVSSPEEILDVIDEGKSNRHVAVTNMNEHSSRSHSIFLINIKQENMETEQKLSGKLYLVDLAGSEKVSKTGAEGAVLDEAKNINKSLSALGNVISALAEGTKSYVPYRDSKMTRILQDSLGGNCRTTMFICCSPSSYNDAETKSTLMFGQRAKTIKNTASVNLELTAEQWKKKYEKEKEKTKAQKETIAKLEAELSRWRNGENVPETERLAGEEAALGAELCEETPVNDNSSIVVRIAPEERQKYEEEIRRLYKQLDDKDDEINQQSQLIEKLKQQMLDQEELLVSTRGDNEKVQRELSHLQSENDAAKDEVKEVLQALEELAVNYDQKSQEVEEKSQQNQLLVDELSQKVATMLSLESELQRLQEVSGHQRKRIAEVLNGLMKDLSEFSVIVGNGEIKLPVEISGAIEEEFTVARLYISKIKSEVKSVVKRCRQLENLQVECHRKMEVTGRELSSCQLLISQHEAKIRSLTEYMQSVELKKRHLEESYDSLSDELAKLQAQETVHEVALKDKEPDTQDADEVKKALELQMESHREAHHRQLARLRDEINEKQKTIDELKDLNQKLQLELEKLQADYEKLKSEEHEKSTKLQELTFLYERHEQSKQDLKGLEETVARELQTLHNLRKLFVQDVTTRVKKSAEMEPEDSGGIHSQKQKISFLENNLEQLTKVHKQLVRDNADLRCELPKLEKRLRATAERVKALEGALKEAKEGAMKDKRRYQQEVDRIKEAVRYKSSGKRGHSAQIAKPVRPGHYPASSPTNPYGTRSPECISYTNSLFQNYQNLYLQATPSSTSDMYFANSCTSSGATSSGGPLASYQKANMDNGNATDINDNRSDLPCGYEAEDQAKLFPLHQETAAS
UniProt Q96A73: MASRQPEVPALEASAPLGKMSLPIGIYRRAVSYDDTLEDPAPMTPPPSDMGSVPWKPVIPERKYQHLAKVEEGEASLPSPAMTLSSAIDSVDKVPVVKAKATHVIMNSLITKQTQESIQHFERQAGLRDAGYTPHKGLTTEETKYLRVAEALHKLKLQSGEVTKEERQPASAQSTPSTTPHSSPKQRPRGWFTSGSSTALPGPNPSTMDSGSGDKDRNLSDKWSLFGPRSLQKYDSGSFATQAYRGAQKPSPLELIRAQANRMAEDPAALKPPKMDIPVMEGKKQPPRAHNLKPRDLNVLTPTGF
UniProt O00139: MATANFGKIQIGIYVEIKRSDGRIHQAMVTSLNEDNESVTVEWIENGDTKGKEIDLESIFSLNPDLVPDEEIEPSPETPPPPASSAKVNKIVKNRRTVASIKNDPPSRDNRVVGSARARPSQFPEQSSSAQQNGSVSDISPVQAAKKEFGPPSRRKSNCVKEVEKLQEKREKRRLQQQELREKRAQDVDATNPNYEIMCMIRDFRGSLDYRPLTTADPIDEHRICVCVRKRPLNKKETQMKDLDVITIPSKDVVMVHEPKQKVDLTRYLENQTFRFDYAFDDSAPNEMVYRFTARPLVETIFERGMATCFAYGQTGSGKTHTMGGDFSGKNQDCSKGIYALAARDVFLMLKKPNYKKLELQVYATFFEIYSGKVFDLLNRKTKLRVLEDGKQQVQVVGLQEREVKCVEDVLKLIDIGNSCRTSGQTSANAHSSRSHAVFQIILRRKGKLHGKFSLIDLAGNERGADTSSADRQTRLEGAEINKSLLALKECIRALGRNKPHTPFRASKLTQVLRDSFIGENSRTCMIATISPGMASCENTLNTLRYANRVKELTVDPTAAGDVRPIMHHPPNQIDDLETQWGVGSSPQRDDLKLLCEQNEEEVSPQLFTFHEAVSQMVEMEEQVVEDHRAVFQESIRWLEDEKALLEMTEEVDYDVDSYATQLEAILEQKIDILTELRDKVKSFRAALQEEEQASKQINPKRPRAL

compound: C#Cc1cccc(Nc2ncnc3cc(OCCOC)c(OCCOC)cc23)c1 [erlotinib]; test: log2 fold change, soluble protein after heating vs DMSO (PISA); higher = thermal stabilisation; K562 lysate, 10 uM; active = over 0.2 and 3.5 SD of the protein, either way, in both replicates (recomputed)
How it was run: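 To prepare the extract, K562 pellets were dounce-homogenised in PBS pH 7.4 with 1 mM MgCl2, giving crude material at 1 mg/mL protein. This was treated with 10 μM compound for 30 min, then heated in aliquots for 3 min over 48°C-58°C before pooling and addition of NP-40 to 0.5% at 4°C. Centrifugation at 21,000xg for 90 min left soluble protein in the supernatant, which TMTpro 16plex LC-MS/MS quantified with equalised channel sums. Results are log-two fold changes in thermal stability compared with solvent controls, from duplicates.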

log2 fold change, inactive:
KLHDC4 (UniProt Q8TBB5) -0.017
KIF5B (UniProt P33176) 0.006
KIAA2013 (UniProt Q8IYS2) 0.003
KIF1B isoform 2 (UniProt O60333) -0.002
KTI12 (UniProt Q96EK9) 0.001
KDSR (UniProt Q06136) 0.023
KIF2C (UniProt Q99661) 0.019
LANCL1 (UniProt O43813) -0.021
KPTN (UniProt Q9Y664) 0.005
LARP7 isoform 3 (UniProt Q4G0J3) -0.026
KDM8 isoform 3 (UniProt Q8N371) 0.09
KEAP1 (UniProt Q14145) 0.048
KLC2 (UniProt Q9H0B6) -0.008
KPNB1 (UniProt Q14974) 0.025
KSR1 (UniProt Q8IVT5) 0.011
KPNA2 (UniProt P52292) 0.009
KLHDC3 (UniProt Q9BQ90) -0.026
KYAT3 (UniProt Q6YP21) -0.009
LARP4 isoform 4 (UniProt Q71RC2) 0.014
KIF5A (UniProt Q12840) 0.035
KIAA1191 (UniProt Q96A73) -0.015
KIF2A isoform 4 (UniProt O00139) -0.008
KIAA1324L (UniProt A8MWY0) -0.005

At a glance, part of the list above.
log2 fold change, inactive:
LANCL1 (UniProt O43813) -0.021
KPTN (UniProt Q9Y664) 0.005
